Measured data: PubChem BioAssay AID686937 (Drosophila RNAi Screening Center, 2013)
Screen: 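Genes in the fly needed for secretion of protein constitutively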 (primary screen). Cells: Drosophila S2 cells expressing secreted horseradish peroxidase. Reagent: long dsRNA against Drosophila genes. Timing: about 5.5 days (5 days dsRNA, then 12 h reporter induction). Conditions: reporter expression induced after 5 days of dsRNA, read 12 h later; inducer not stated. Measurement: 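Chemiluminescent measurement of peroxidase in the medium 12 h after reporter induction, following 5 days of dsRNA, given as a z-score per plate; higher means more secretion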. Reading the numbers: z-score: higher = more reporter secreted into medium.
The deposit covers about 23,000 reagents; this is a random part of those that have a named target and a result. 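Reduced-secretion tags in replicate 1 do not always agree with the z-scores; no criterion for assigning the tags was given.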 No sequences are given here. Not stated in the record: the amount of reagent.

Which result is listed for CG15196 [DRSC19643]?
z-score, replicate 1: 0.32; z-score, replicate 2: 0.16

Which result is listed for Panx (Panoramix) [DRSC04563]?
z-score, replicate 1: -0.03; z-score, replicate 2: 0.18

For Mlc1 (Myosin alkali light chain 1) [DRSC16740], what was measured?
z-score, replicate 1: 0.5; z-score, replicate 2: 0.56

How did the screen score CG13667 [DRSC10028]?
z-score, replicate 1: 0.24; z-score, replicate 2: 0.4

For CG14408 [DRSC19595], how do the results read?
z-score, replicate 1: 0.5; z-score, replicate 2: 0.4

Which result is listed for gzl (godzilla E3 ubiquitin protein ligase) [DRSC12517]?
z-score, replicate 1: 0.44; z-score, replicate 2: 0.58

What is on record for Sec24CD (Secretory 24CD) [DRSC00300]?
z-score, replicate 1: -0.48; z-score, replicate 2: -0.96

How did the screen score CG2113 [DRSC08554]?
z-score, replicate 1: 0.35; z-score, replicate 2: 0.36

Which result is listed for Hsdl2 (Hydroxysteroid dehydrogenase like 2) [DRSC15839]?
z-score, replicate 1: 0.23; z-score, replicate 2: 0.32

Which result is listed for CG17637 [DRSC11740]?
z-score, replicate 1: 0.34; z-score, replicate 2: 0.27

A run of entries taken from the entries so far:
CG2113 [DRSC08554] — z-score, replicate 1 = 0.35; z-score, replicate 2 = 0.36
Hsdl2 (Hydroxysteroid dehydrogenase like 2) [DRSC15839] — z-score, replicate 1 = 0.23; z-score, replicate 2 = 0.32

Continued:
Which result is listed for CG5386 [DRSC15788]?
z-score, replicate 1: -0.51; z-score, replicate 2: -0.28

What did the screen give for CG13311 [DRSC09982]?
z-score, replicate 1: 0.39; z-score, replicate 2: 0.29

For dimm (dimmed) [DRSC03100], how do the results read?
z-score, replicate 1: 0.08; z-score, replicate 2: 0.28

How did the screen score Ran-like [DRSC10918]?
z-score, replicate 1: 0.26; z-score, replicate 2: 0.35

How did the screen score CG13252 [DRSC11700]?
z-score, replicate 1: 0.12; z-score, replicate 2: -0.13

For nod (no distributive disjunction) [DRSC18900], what does the deposit list?
z-score, replicate 1: 0.17; z-score, replicate 2: -0.36

How did the screen score nod (no distributive disjunction) [DRSC20356]?
z-score, replicate 1: 0.22; z-score, replicate 2: 0.32
